The supplement of paper PMC8728848
This is one part of the list.

Columns and labels:
Experiment in all cases: glycan array binding signal (z-score within array); higher = stronger binding
Settings in all cases: glycan notation: IUPAC condensed, linker removed
[1] = biological target: Gal(b1-3)GlcNAc(b1-3)Gal(b1-4)GlcNAc(b1-2)[Gal(b1-3)GlcNAc(b1-3)Gal(b1-4)GlcNAc(b1-6)]Man(a1-6)[Gal(b1-3)GlcNAc(b1-3)Gal(b1-4)GlcNAc(b1-2)Man(a1-3)]Man(b1-4)GlcNAc(b1-4)[Fuc(a1-6)]GlcNAc
Outline: (§1)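 Glycan array data were curated from 3228 arrays in the Consortium for Functional Glycomics database and kept only where the protein sequence was available. Glycan names were converted to IUPAC-condensed notation, and columns mapping to the same glycan were averaged. The binding signal is a within-array Z-score, averaged across arrays of the same protein sequence at different concentrations or buffers and across linkers. Negative Z-scores can be read as non-binding.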

[2] = biological target: Gal(b1-3)GlcNAc(b1-3)Gal(b1-4)GlcNAc(b1-3)Gal(b1-4)GlcNAc(b1-2)[Gal(b1-3)GlcNAc(b1-3)Gal(b1-4)GlcNAc(b1-3)Gal(b1-4)GlcNAc(b1-6)]Man(a1-6)[Gal(b1-3)GlcNAc(b1-3)Gal(b1-4)GlcNAc(b1-3)Gal(b1-4)GlcNAc(b1-2)Man(a1-3)]Man(b1-4)GlcNAc(b1-4)[Fuc(a1-6)]GlcNAc
Outline: as §1

[3] = biological target: Gal(b1-3)GlcNAc(b1-3)Gal(b1-4)GlcNAc(b1-6)[Gal(b1-3)GlcNAc(b1-3)]Gal(b1-4)Glc
Outline: as §1

[4] = biological target: Gal(b1-3)GlcNAc(b1-3)Gal(b1-4)[Fuc(a1-3)]GlcNAc
Outline: as §1

[5] = biological target: Gal(b1-3)GlcNAc(b1-3)Gal(b1-4)[Fuc(a1-3)]GlcNAc(b1-6)[Gal(b1-3)GlcNAc(b1-3)]Gal(b1-4)Glc
Outline: as §1

[6] = biological target: Gal(b1-3)GlcNAc(b1-3)GalNAc
Outline: as §1

[7] = biological target: Gal(b1-3)GlcNAc(b1-6)Gal(b1-4)GlcNAc
Outline: as §1

[8] = biological target: Gal(b1-3)GlcNAc(b1-6)GalNAc
Outline: as §1

[9] = biological target: Gal(b1-3)GlcNAc(b1-6)[Gal(b1-3)]GalNAc
Outline: as §1

Gal(b1-3)GlcNAc6S = biological target: Gal(b1-3)GlcNAc6S
Outline: as §1

[10] = biological target: Gal(b1-3)[Fuc(a1-4)]GlcNAc
Outline: as §1

[11] = biological target: Gal(b1-3)[Fuc(a1-4)]GlcNAc(b1-2)Man
Outline: as §1

[12] = biological target: Gal(b1-3)[Fuc(a1-4)]GlcNAc(b1-2)Man(a1-3)[Gal(b1-3)[Fuc(a1-4)]GlcNAc(b1-2)Man(a1-6)]Man(b1-4)GlcNAc(b1-4)[Fuc(a1-6)]GlcNAc
Outline: as §1

[13] = biological target: Gal(b1-3)[Fuc(a1-4)]GlcNAc(b1-3)Gal(b1-3)[Fuc(a1-4)]GlcNAc
Outline: as §1

[14] = biological target: Gal(b1-3)[Fuc(a1-4)]GlcNAc(b1-3)Gal(b1-4)[Fuc(a1-3)]GlcNAc
Outline: as §1

[15] = biological target: Gal(b1-3)[Fuc(a1-4)]GlcNAc(b1-6)GalNAc
Outline: as §1

[16] = biological target: Gal(b1-3)[GlcNAc(b1-6)]GalNAc
Outline: as §1

[17] = biological target: Gal(b1-3)[Neu5Ac(a2-6)]GalNAc
Outline: as §1

[18] = biological target: Gal(b1-3)[Neu5Ac(a2-6)]GlcNAc(b1-4)Gal(b1-4)Glc
Outline: as §1

[19] = biological target: Gal(b1-3)[Neu5Ac(b2-6)]GalNAc
Outline: as §1

Gal(b1-4)Gal = biological target: Gal(b1-4)Gal
Outline: as §1

[20] = biological target: Gal(b1-4)GalNAc(a1-3)[Fuc(a1-2)]Gal(b1-4)GlcNAc
Outline: as §1

[21] = biological target: Gal(b1-4)GalNAc(b1-3)[Fuc(a1-2)]Gal(b1-4)GlcNAc
Outline: as §1

Gal(b1-4)Glc = biological target: Gal(b1-4)Glc
Outline: as §1

Gal(b1-4)Glc6S = biological target: Gal(b1-4)Glc6S
Outline: as §1

Gal(b1-4)GlcNAc = biological target: Gal(b1-4)GlcNAc
Outline: as §1

[22] = biological target: Gal(b1-4)GlcNAc(a1-6)Gal(b1-4)GlcNAc
Outline: as §1

Gal(b1-4)GlcNAc(b1-2)Man = biological target: Gal(b1-4)GlcNAc(b1-2)Man
Outline: as §1

[23] = biological target: Gal(b1-4)GlcNAc(b1-2)Man(a1-3)Man(b1-4)GlcNAc(b1-4)GlcNAc
Outline: as §1

[24] = biological target: Gal(b1-4)GlcNAc(b1-2)Man(a1-3)[Gal(b1-4)GlcNAc(b1-2)Man(a1-6)]Man(b1-4)GlcNAc(b1-4)GlcNAc
Outline: as §1

[25] = biological target: Gal(b1-4)GlcNAc(b1-2)Man(a1-3)[Gal(b1-4)GlcNAc(b1-2)Man(a1-6)]Man(b1-4)GlcNAc(b1-4)[Fuc(a1-6)]GlcNAc
Outline: as §1

[26] = biological target: Gal(b1-4)GlcNAc(b1-2)Man(a1-3)[Gal(b1-4)GlcNAc(b1-2)Man(a1-6)][Gal(b1-4)GlcNAc(b1-4)]Man(b1-4)GlcNAc(b1-4)[Fuc(a1-6)]GlcNAc
Outline: as §1

[27] = biological target: Gal(b1-4)GlcNAc(b1-2)Man(a1-3)[Gal(b1-4)GlcNAc(b1-2)Man(a1-6)][GlcNAc(b1-4)]Man(b1-4)GlcNAc(b1-4)[Fuc(a1-6)]GlcNAc
Outline: as §1

[28] = biological target: Gal(b1-4)GlcNAc(b1-2)Man(a1-3)[GlcNAc(b1-2)Man(a1-6)]Man(b1-4)GlcNAc(b1-4)GlcNAc
Outline: as §1

[29] = biological target: Gal(b1-4)GlcNAc(b1-2)Man(a1-3)[GlcNAc(b1-4)][Gal(b1-4)GlcNAc(b1-2)Man(a1-6)]Man(b1-4)GlcNAc(b1-4)GlcNAc
Outline: as §1

[30] = biological target: Gal(b1-4)GlcNAc(b1-2)Man(a1-3)[Man(a1-6)]Man(b1-4)GlcNAc(b1-4)GlcNAc
Outline: as §1

[31] = biological target: Gal(b1-4)GlcNAc(b1-2)Man(a1-6)Man(b1-4)GlcNAc(b1-4)GlcNAc
Outline: as §1

[32] = biological target: Gal(b1-4)GlcNAc(b1-2)Man(a1-6)[GlcNAc(b1-2)Man(a1-3)]Man(b1-4)GlcNAc(b1-4)GlcNAc
Outline: as §1

B1: PX9961KLbvu-535-38-535 (Bacteroides vulgatus) (protein)
chain: DKAYTDAESYTKGLHKIYSVWALSGQDGSSSSDISGLDAGNTALLRCWWTLQEQPTDEMKNAWNDAWCTEVNYMTWTTNKVEPIEGVYQRCMYIVALVNEFLKNIPNAPESIDKESYIAQARFNRAFAYYVLMDMFALPPFITEKNYSIEPAPLSREDLFNWIEAELNEIKPNLPSPRSEYGVADQAVASALLARMYLNAEIYTGKARYTECINACNEVIKAGYQLADNYADLFKADNGENPDTKKEIIYPIIFDGDKTQSWGMAAIIIGARGAEDKDVLLAHSGVDQGWAGFRATSNLVHLFDFQNDEEPKASEIQDKRGIFYDKGRSIDITSSVSGTFETEGWSVFKFSNLNSNGQPGKNTLWVDTDFPMFRLGDIYLMYAEAVARGGEGSKASAVEYINALRKRAYGDDKHNISENWLEENNFRNLLDERGRELYWEGIRRTDLVRFDLLTSGSYTWDFKGGINTGVGVNKRYNVYPIPVTDLTVNGNLQQNEGY
glycan array binding signal (z-score) [1]: 0.403 | glycan array binding signal (z-score) [2]: 0.333 | glycan array binding signal (z-score) [3]: -0.446 | glycan array binding signal (z-score) [4]: 0.922 | glycan array binding signal (z-score) [5]: -0.623 | glycan array binding signal (z-score) [6]: -0.68 | glycan array binding signal (z-score) [7]: -0.398 | glycan array binding signal (z-score) [8]: -0.11 | glycan array binding signal (z-score) [9]: -0.352 | glycan array binding signal (z-score) (Gal(b1-3)GlcNAc6S): 0.353 | glycan array binding signal (z-score) [10]: -0.123 | glycan array binding signal (z-score) [11]: -0.21 | glycan array binding signal (z-score) [12]: 0.228 | glycan array binding signal (z-score) [13]: -0.394 | glycan array binding signal (z-score) [14]: -1.16 | glycan array binding signal (z-score) [15]: 0.535 | glycan array binding signal (z-score) [16]: -0.541 | glycan array binding signal (z-score) [17]: -0.357 | glycan array binding signal (z-score) [18]: 0.322 | glycan array binding signal (z-score) [19]: 0.222 | glycan array binding signal (z-score) (Gal(b1-4)Gal): -0.111 | glycan array binding signal (z-score) [20]: -0.291 | glycan array binding signal (z-score) [21]: -0.673 | glycan array binding signal (z-score) (Gal(b1-4)Glc): -0.043 | glycan array binding signal (z-score) (Gal(b1-4)Glc6S): 0.941 | glycan array binding signal (z-score) (Gal(b1-4)GlcNAc): -0.213 | glycan array binding signal (z-score) [22]: -0.503 | glycan array binding signal (z-score) (Gal(b1-4)GlcNAc(b1-2)Man): 0.434 | glycan array binding signal (z-score) [23]: 0.158 | glycan array binding signal (z-score) [24]: -0.667 | glycan array binding signal (z-score) [25]: 0.983 | glycan array binding signal (z-score) [26]: -0.524 | glycan array binding signal (z-score) [27]: -0.8 | glycan array binding signal (z-score) [28]: -0.039 | glycan array binding signal (z-score) [29]: -0.249 | glycan array binding signal (z-score) [30]: -0.443 | glycan array binding signal (z-score) [31]: -0.754 | glycan array binding signal (z-score) [32]: -0.169
